Assay results reported in paper PMC7819943, “Rice protein-binding microarrays: a tool to detect cis-acting elements near promoter regions in rice”.
The other results are listed elsewhere or left out.

target: T1, OsSMF1 (Oryza sativa, UniProt Q6ZLB0 1-436); experiment: protein-binding microarray (RPBM); PBS, 2% BSA, 51.3 ng/ul salmon testes DNA, 50 uM zinc acetate, 200 nM TF, 25 C, 1 h; high values mean tight binding; details: protein: recombinant; tags: N-terminal polyhistidine and DsRed monomer fusion (pET32a); chain copies: 2; label: CyDye5-dUTP incorporated in the synthesized complementary strand; 3' TTTTT single-stranded linker to array surface; dsDNA, one strand shown
T1 sequence: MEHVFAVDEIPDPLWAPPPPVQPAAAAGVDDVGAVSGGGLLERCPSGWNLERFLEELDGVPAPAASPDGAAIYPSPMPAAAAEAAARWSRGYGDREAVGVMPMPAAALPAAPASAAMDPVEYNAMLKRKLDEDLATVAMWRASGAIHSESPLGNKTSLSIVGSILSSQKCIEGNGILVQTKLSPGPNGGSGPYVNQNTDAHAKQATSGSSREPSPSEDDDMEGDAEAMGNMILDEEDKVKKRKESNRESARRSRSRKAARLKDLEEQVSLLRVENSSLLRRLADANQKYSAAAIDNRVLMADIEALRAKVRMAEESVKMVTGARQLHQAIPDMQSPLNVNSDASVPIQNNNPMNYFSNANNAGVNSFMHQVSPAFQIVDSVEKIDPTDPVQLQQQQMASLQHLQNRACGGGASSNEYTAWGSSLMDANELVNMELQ
Procedure, shortened: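 Polyhistidine-tagged DsRed fusions of transcription factors, joined at the N-terminus, were expressed in E. coli BL21-CodonPlus and isolated on Ni–NTA. They were incubated at 200 nM for 1 h at 25 °C on a custom Agilent array, double-stranded and BSA-blocked, in PBS with 2% BSA, salmon testes DNA and 50 µM zinc acetate. The binding signal is per-feature fluorescence intensity (arbitrary units) read on an Axon 4000B scanner after washing.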

Sequence | binding signal
CAAGCGTTGCATCAGTGGGTGCACGCGCGTGGCAGGGGTCCGGAGTCACCTAGTGCAG | 4900 fluorescence intensity (a.u.)
TTTGCAACCCTCATCGTTTCTCTTCGTCAGATACTCAGATCGGAGTCACCTAGTGCAG | 3570 fluorescence intensity (a.u.)
ATATAGGGGTTGGTCTTCCACGTCAAATTTGGGGTAGATACGGAGTCACCTAGTGCAG | 5460 fluorescence intensity (a.u.)
TGTAGATGATTTTGATCTTGATTTTGCACGTATGCATAACCGGAGTCACCTAGTGCAG | 4800 fluorescence intensity (a.u.)
TACTCGACGATGACCACGCGGCGTCCCTCCCGGACGACGTCGGAGTCACCTAGTGCAG | 3560 fluorescence intensity (a.u.)
CTCTTCTCTTGGTTTGGGGTGTCACGACTCACGACCTGCCCGGAGTCACCTAGTGCAG | 3350 fluorescence intensity (a.u.)
TTATCTAGCGTCGCTGCTGTGAGCCGGCCGTGATGTCATGCGGAGTCACCTAGTGCAG | 9110 fluorescence intensity (a.u.)
ATTGATACTGAGACTGACTCGGTTTTCGTCAAGGTGTTCTCGGAGTCACCTAGTGCAG | 3380 fluorescence intensity (a.u.)
TGCAGGAGGATGGCCCGCCACGCGGTGTTTTGGGCCGTTCCGGAGTCACCTAGTGCAG | 3270 fluorescence intensity (a.u.)
TAGTACTATGAATCTGTATAGAAGTAGGTAGGATGTATCACGGAGTCACCTAGTGCAG | 21200 fluorescence intensity (a.u.)
CACGACACGGCTCCTGGACCTCCTCGCCCACGTGAACCCGCGGAGTCACCTAGTGCAG | 30100 fluorescence intensity (a.u.)
GTTTGTTGTCCTATTAAAATTTGGTAATGCCAAAATTTAGCGGAGTCACCTAGTGCAG | 9940 fluorescence intensity (a.u.)
TCCCTCCCTCCGCCGCGCCACGCCCACCCACGCATCCATCCGGAGTCACCTAGTGCAG | 4110 fluorescence intensity (a.u.)
TGCGAACTCGCTACGTGGAATACTTGGGCCCTTCCCTTCCCGGAGTCACCTAGTGCAG | 5370 fluorescence intensity (a.u.)
AGGCTGGATCTAGTGGGTTGCTGCGTTGTCGCTAGGTTGTCGGAGTCACCTAGTGCAG | 17200 fluorescence intensity (a.u.)
CCTACTCAATTGCGTCACCCGTGTATAAATCCATTCGGATCGGAGTCACCTAGTGCAG | 7920 fluorescence intensity (a.u.)
AGTGCTAGTCATCACTGTATTAGATTTAGGAATCTCTTCTCGGAGTCACCTAGTGCAG | 3600 fluorescence intensity (a.u.)
AAATTTGGCAGGAGTAGCAATGTATCATGTCGTAGTCTGGCGGAGTCACCTAGTGCAG | 3140 fluorescence intensity (a.u.)
AGCAGCAGCTGGACCACACTGCTGTGCTTGGAGCCCGGGGCGGAGTCACCTAGTGCAG | 20000 fluorescence intensity (a.u.)
GCCGCCGCCGGCAATCCATGTGCACTGATGTGCAGACATACGGAGTCACCTAGTGCAG | 3380 fluorescence intensity (a.u.)
CAGCCGCTGAACAAAAGAGGATCAGCGAAGAGGCGCAAGGCGGAGTCACCTAGTGCAG | 12300 fluorescence intensity (a.u.)

Sequence | binding signal
ACTATAAGTAGAGACCTGTTCATCATGGACAGGCAGGCAGCGGAGTCACCTAGTGCAG | 7140 fluorescence intensity (a.u.)
GCAAGAATTTTCCGTCATACTTCCTGTTCGGATAAGACCACGGAGTCACCTAGTGCAG | 3180 fluorescence intensity (a.u.)
CTTTGCTCGGAAGTCTGTCTATGTCATCTTGATGAACCCTCGGAGTCACCTAGTGCAG | 4830 fluorescence intensity (a.u.)
TTAAATTTAGGACCGAATTACACGTACGTCAGGCGCGCTCCGGAGTCACCTAGTGCAG | 4300 fluorescence intensity (a.u.)
ACCACCACCTCGAAGGTCTTGAGCTCCATCTCCGGCGACGCGGAGTCACCTAGTGCAG | 11200 fluorescence intensity (a.u.)
TTGTGAGTTGGCCTTTTGTGACTGTAAATTTTCCAGGTGACGGAGTCACCTAGTGCAG | 4170 fluorescence intensity (a.u.)
GGATTTGGCCATTTCTTGCCTCGTGTCGTTGGCAGAGACCCGGAGTCACCTAGTGCAG | 3950 fluorescence intensity (a.u.)
ATTTTGATATTGGCTAAATCATCACGTGTCGACATGTATGCGGAGTCACCTAGTGCAG | 6620 fluorescence intensity (a.u.)
TTTCTAAGACATTTGTGCCACTTGGCATGAATCTAATTTACGGAGTCACCTAGTGCAG | 3780 fluorescence intensity (a.u.)
TCAGTCAATCTGGACCGTCCACGTGTACGTTTTCTCCTCTCGGAGTCACCTAGTGCAG | 13600 fluorescence intensity (a.u.)
CTAAATGAACTGATATATCGCTGACTTGGTTTCCATGCAGCGGAGTCACCTAGTGCAG | 4860 fluorescence intensity (a.u.)
ACTAATTGTGGCCATGTTCATCGTGCAGTTCCTTGGATCTCGGAGTCACCTAGTGCAG | 17300 fluorescence intensity (a.u.)
TTTCCGTCACCTTAGTGAAGATGGTAGTGCCTCTCATCCACGGAGTCACCTAGTGCAG | 3300 fluorescence intensity (a.u.)
AGTATGCCACCGCGTATACTCGCGTCACCCGGCTGTAACGCGGAGTCACCTAGTGCAG | 5600 fluorescence intensity (a.u.)
CGGTCAATATCGCCACGTAGGCGGCCACGTCCGTGAAACCCGGAGTCACCTAGTGCAG | 14000 fluorescence intensity (a.u.)
GAAACCTGATGATGCTTGATGGAAATCCATTAGACAGCGTCGGAGTCACCTAGTGCAG | 4580 fluorescence intensity (a.u.)
CCACCACCGCGCCACCATGGGCGCCGCCACCGCCCAGCCGCGGAGTCACCTAGTGCAG | 3250 fluorescence intensity (a.u.)
GTAGTTGTTGTACGTTGATTTCAGGAAGCTGCGTGCACGACGGAGTCACCTAGTGCAG | 12700 fluorescence intensity (a.u.)
CACTGTCTCACATGAACCCACTAATACGTGGGTCTCACTACGGAGTCACCTAGTGCAG | 3780 fluorescence intensity (a.u.)
CGACGTCGATGACGACTTCTATTTCTCTCGTGCCCTTCTCCGGAGTCACCTAGTGCAG | 4990 fluorescence intensity (a.u.)
TCTCGTTTCCTTGCACGTAAGCCGCGCCCTTTTGCCTTGCCGGAGTCACCTAGTGCAG | 3400 fluorescence intensity (a.u.)

Two entries from above, with each value named.
AGCAGCAGCTGGACCACACTGCTGTGCTTGGAGCCCGGGGCGGAGTCACCTAGTGCAG
  binding signal = 20000 fluorescence intensity (a.u.)
TCTCGTTTCCTTGCACGTAAGCCGCGCCCTTTTGCCTTGCCGGAGTCACCTAGTGCAG
  binding signal = 3400 fluorescence intensity (a.u.)
